# Results published in article PMC7588595, “Small-molecule active pharmaceutical ingredients of approved cancer therapeutics inhibit human aspartate/asparagine-β-hydroxylase” (Bioorganic & Medicinal Chemistry, 2020).
# Molecular target: T1, human AspH (His6-AspH315–758) (Homo sapiens, UniProt Q12797)
# T1 construct: N-Terminally His6-tagged human AspH315–758 (His6-AspH315–758) was produced in Escherichia coli BL21 (DE3) cells; made in house; host or cells: Escherichia coli BL21 (DE3), pET-28a(+) vector
# T1 sequence (Q12797 315-758): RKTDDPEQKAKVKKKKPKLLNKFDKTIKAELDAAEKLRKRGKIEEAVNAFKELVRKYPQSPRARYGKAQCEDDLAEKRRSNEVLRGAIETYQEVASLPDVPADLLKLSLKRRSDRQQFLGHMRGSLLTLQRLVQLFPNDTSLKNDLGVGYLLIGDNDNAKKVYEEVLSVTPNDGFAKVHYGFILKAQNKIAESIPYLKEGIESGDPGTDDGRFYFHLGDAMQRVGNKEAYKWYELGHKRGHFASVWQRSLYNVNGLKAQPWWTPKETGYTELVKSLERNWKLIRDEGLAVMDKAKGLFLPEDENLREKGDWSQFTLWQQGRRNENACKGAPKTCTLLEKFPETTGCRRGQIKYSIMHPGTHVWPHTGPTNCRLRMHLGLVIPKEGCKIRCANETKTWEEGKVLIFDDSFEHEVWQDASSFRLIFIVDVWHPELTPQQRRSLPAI
# Assay: SPE-MS AspH inhibition assay (hFX-CP101-119 substrate hydroxylation)
# Format: biochemical
compound,measurement,value
CC(C)c1c(C(=O)Nc2ccccc2)c(-c2ccccc2)c(-c2ccc(F)cc2)n1CC[C@@H](O)C[C@@H](O)CC(=O)[O-].CC(C)c1c(C(=O)Nc2ccccc2)c(-c2ccccc2)c(-c2ccc(F)cc2)n1CC[C@@H](O)C[C@@H](O)CC(=O)[O-].[Ca+2] [Atorvastatin Ca],Plate 1 (% conversion),49.56%
same,Plate 1-duplicate (% conversion),52.95%
